According to patent publication US7208572B2, “Leptin-related peptides” (Albany Medical College, priority 1998, dated 2007):
Entries after “also recorded” stand apart in the source; their conditions may differ. At least one peptide structure holds a part that was inferred or is arguable (an end, a ring closure or a residue). Marks after values point to notes of the source that are not given here. Square brackets hold non-standard residues; d marks the D form. Ends that are not written are not given here. Peptide text beside a SMILES is read from it.

Key:
Type in all cases: in vivo, mouse
[1] = Serum insulin by ELISA in female C57BL/6J ob/ob mice (Example 11); settings: 7 days
[2] = Pair-feeding study: blood glucose in female C57BL/6J ob/ob mice
[3] = Truncated and D-amino acid-substituted analogs: body weight, food and water intake in female C57BL/6J ob/ob mice, 7 days; settings: for Cumulative food intake / Heavier (+) or lighter (−) than initial weight / Weight gain (+) or loss (−) / Increase (+) or decrease (−) of cumulative food intake: D-analog series
Description: A. Housing: 6–8-week old homozygous female obese (ob/ob) and wild type (+1+) mice (C57BL/6J, Jackson Laboratory, Bar Harbor, Maine) were maintained in a temperature-controlled room (24° C.) in the Albany Medical College Animal Resources Facility under alternating 12-h light and dark periods (lights on 0700–1900 h). The animals were housed three per cage, and allowed food and water ad libitum for six days following their arrival.
Food and water remaining after 24 h was measured to the nearest 0.1 g and 0.1 ml, respectively, and the average amount consumed per mouse was calculated (mean±SEM, n=6). The mice were weighed once daily between 0900 and 1100 h on an Acculab V-333 electronic balance (Cole-Parmer, Vernon Hills, Ill.)
C. […] Control mice received 0.2 ml PBS (ip) only.
Female C7BL/6J ob/ob mice were given a single ip injection of vehicle (PBS, pH 7.2), LEP-(116–130) or truncated peptide (1 mg/200 ul PBS) for seven consecutive days. Daily changes in body weight compared to pretreatment weights of vehicle-injected control and peptide-treated mice were analyzed.

[4] = Blood glucose in female C57BL/6J ob/ob mice (Example 11); settings: for Serum glucose level: 1 mg/day ip
Description: D. Measurement of blood glucose: Blood was drawn from the tail vein of each mouse 2 h before the onset of the dark period at the beginning of the study, and after 2, 4, and 6 days of peptide treatment. The blood was applied to a test strip, and glucose levels were measured with a Glucometer Elite (Bayer, Elkhart, Ind.) glucose monitor.

[5] = Pair-feeding study: body weight, food and water intake in female C57BL/6J ob/ob mice
[6] = Pair-feeding study: thermogenesis (cold stress) in female C57BL/6J ob/ob mice; settings: 7 days, 4 h at 4° C.
[7] = Pair-feeding study: serum insulin in female C57BL/6J ob/ob mice; settings: 7 days
[8] = Thermoregulatory studies (cold stress 4° C.) in female C57BL/6J ob/ob mice (Example 11)
[9] = OB3 on blood glucose levels in female C57BL/6J ob/ob mice
[10] = OB3 on blood glucose levels in female C57BLKS/J-m db/db mice
[11] = 12-day ip study of body weight gain and food intake in female C57BL/6J ob/ob mice; settings: 1 mg/day ip, 12 days
Description: The graphs show changes in body weight (expressed as percent of initial weight) and food intake (expressed as mg/gm body weight/mouse) for mice given vehicle or synthetic leptin-related peptide OB3 (1 mg/day, ip, 12 days).
Mice were injected with leptin-related synthetic peptide (1 mg/g body weight, ip) or vehicle daily for 12 consecutive days. Each bar represents mean±SEM food consumption per mouse (n=6 mice per group) after 3, 6, 9 and 12 days of treatment.
Each value represents mean±SEM change in body weight for a group of 6 mice.
Mice were injected with leptin-related synthetic peptide (1 mg/g body weight, ip) or vehicle for 12 consecutive days. Each bar and vertical line represents mean±food consumption per mouse (n=6 mice per group) after 3, 6, 9 and 12 days of treatment.

Molecule: CC(C)C[C@@H](NC(=O)[C@H](CO)NC(=O)[C@H](CS)NC(=O)[C@@H](N)CO)C(=O)N1CCC[C@H]1C(=O)N[C@@H](CCC(N)=O)C(=O)N[C@H](C(N)=O)[C@@H](C)O [[D-Leu-4]-OB3, Ser-Cys-Ser-[D-Leu]-Pro-Gln-Thr] (H-SCS[dL]PQT-NH2)
- Reduction of serum insulin ([1]; 1 mg/day ip): 68%
- Effect on serum insulin [1]: significantly reduced serum insulin levels
- Reduction of blood glucose ([2]; after 1 day of treatment): 40%
- Blood glucose ([2]; after 2 days of treatment): reduced (P<0.01) to levels comparable to those of wild-type mice
- Cumulative water intake ([3]; 1 mg/day ip, 7 days): 34.7 ± 1.2^b ml/mouse
- Increase in weight-reducing effect relative to OB3 ([3]; 1 mg/day ip, 7 days): 2.6 fold
- Cumulative food intake ([3]; 1 mg/day ip, 7 days): 32.8 ± 1.4^b g/mouse
- Heavier (+) or lighter (−) than initial weight ([3]; 1 mg/day ip, 7 days): −6.0%
- Weight gain (+) or loss (−) ([3]; 1 mg/day ip, 7 days): −2.9 ± 0.55^c g
- Less food consumed than OB3-treated mice ([3]; 7 days): 7.9%
- Less water consumed than OB3-treated mice ([3]; 7 days): 16.5%
- Water consumption relative to OB3 ([3]; 7 days): significantly less than that seen in mice receiving OB3
- Lighter than at the beginning of the study ([3]; after 7 days): 6%
- Increase (+) or decrease (−) of cumulative water intake ([3]; vs vehicle): −46.0%
- Increase (+) or decrease (−) of cumulative food intake ([3]; vs vehicle): −34.9%
- Serum glucose level ([4]; Day 2): 172.0 ± 5.7^a mg/dl
- Serum glucose level ([4]; Day 4): 182.0 ± 10.3^a mg/dl
- Serum glucose level ([4]; Day 6): 190.2 ± 23.7^a mg/dl
- Body weight at end of the 7-day study [5]: 30.6 ± 1.8 g
- Food consumed [5]: 21.6 g food/mouse/7 days
- Food consumed per day [5]: 3.1 g food/mouse/day
- Water consumed per day [5]: 4.7 ml/mouse/day
- Final weight ([5]; 1 mg/day, 7 days): 30.8 ± 1.0 g
- Percent change (body weight) ([5]; 1 mg/day, 7 days): −5.0%
- Weight change ([5]; 1 mg/day, 7 days): −1.6c g
- Water consumed ([5]; 7-day test period): 33 ml/mouse
- Heavier than wild-type mice at end of study ([5]; 7 days): 1.7 fold
- Less food consumed than vehicle-injected ad libitum mice ([5]; 7 days): 60%
- Less water consumed than ad libitum fed mice ([5]; 7 days): 45%
- Loss of initial body weight ([5]; after 7 days): approximately 5%
- Thermogenesis / recovery of core temperature [6]: showed no evidence of recovery; also recorded: apparently unable to stimulate thermogenesis
- Serum insulin relative to mice feeding ad libitum [7]: 53%

Molecule: SCSLPQT-NH2 [OB3, Ser-Cys-Ser-Leu-Pro-Gln-Thr]
- Cumulative water intake ([3]; 1 mg/day ip, 7 days): 45.3 ± 3.6 ml/mouse
- Effect on body weight ([3]; 1 mg/day ip, 7 days): maintained their initial body weight
- Cumulative food intake ([3]; 1 mg/day ip, 7 days): 36.8 ± 0.7 g/mouse
- Heavier (+) or lighter (−) than initial weight ([3]; 1 mg/day ip, 7 days): +0.8%
- Weight gain (+) or loss (−) ([3]; 1 mg/day ip, 7 days): +1.0 ± 0.22^b g
- Decrease(%) of cumulative food intake ([3]; 1 mg/day ip, 7 days, vs vehicle): 26.0%
- Food intake less than vehicle-injected control mice ([3]; 7 days): 26.0%
- Gain of initial body weight ([3]; after 7 days): 0.8%
- Increase (+) or decrease (−) of cumulative water intake ([3]; vs vehicle): −29.5%
- Increase (+) or decrease (−) of cumulative food intake ([3]; vs vehicle): −27.0%
- Maximal reduction of blood glucose [4]: approximately 100 mg/dl
- Serum glucose level ([4]; Day 2): 281.7 ± 14.3 b mg/dl
- Serum glucose level ([4]; Day 4): 300.0 ± 22.2 b mg/dl
- Serum glucose level ([4]; Day 6): 300.0 ± 8.4^b mg/dl
- Effect on thermogenesis / ability to thermoregulate [8]: did not reverse their inability to thermoregulate
- Effect on blood glucose [9]: lowers blood glucose in both strains of mice
- Effect on blood glucose [10]: lowers blood glucose in both strains of mice
- Body weight gain and food intake vs vehicle [11]: reduced body weight gain and food intake
- Body weight gain and food intake vs vehicle ([11]; listed as LEP(116–122)): approximated the activity of the parent peptide LEP(116–130)
